PubChem BioAssay AID1224830, NIAID | 2016

Screen: 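Regulators of TLR4 signalling towards TNF-alpha in macrophage-like cells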 (primary screen)
System: human THP-1 monocytic leukaemia cells, TNF dual-luciferase reporter clone, PMA-differentiated to macrophage-like cells
Reagents: siRNA pool against human genes, 50 nM
Timing: LPS for 4 h, given about 3 days after siRNA transfection
Challenge: bacterial LPS (TLR4 ligand), 10 ng/ml
Measured: 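Ratio of firefly to renilla light, scaled to the plate median and expressed as a robust z-score per replicate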
Scale: TNF reporter robust z-score: higher = stronger TNF reporter response to LPS
Active means: 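a well is active when its z-score exceeds 2.8 or falls below -1.5; control wells carry no call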
This is a random part of about 18,000 reagents. Over the whole deposit, about 2,900 (16%) are marked active. 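Calls are made per well; low scores hint the gene aids the LPS response, high scores that it dampens it.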 Repeated entries: four replicate wells of each siRNA pool.

| gene symbol | TNF reporter robust z-score | outcome |
| --- | --- | --- |
| OR2A2 | -0.38 | inactive |
| OR2A2 | 0.43 | inactive |
| OR2A2 | 0.23 | inactive |
| OR2A2 | 0.71 | inactive |
| CLEC4F | 0.45 | inactive |
| CLEC4F | 1.14 | inactive |
| CLEC4F | 0.3 | inactive |
| CLEC4F | 0.77 | inactive |
| PPP4R2 | -0.38 | inactive |
| PPP4R2 | -1.26 | inactive |
| PPP4R2 | -1.65 | active |
| PPP4R2 | 0.03 | inactive |
| PRAMEF6 | -0.77 | inactive |
| PRAMEF6 | -0.32 | inactive |
| PRAMEF6 | -0.39 | inactive |
| PRAMEF6 | -0.26 | inactive |
| TUBB4A | -0.77 | inactive |
| TUBB4A | -0.48 | inactive |
| TUBB4A | 0.74 | inactive |
| TUBB4A | 0.23 | inactive |
| ZNF607 | 3.36 | active |
| ZNF607 | 3.61 | active |
| ZNF607 | 2.41 | inactive |
| ZNF607 | 1.52 | inactive |
| PNN | -0.16 | inactive |
| PNN | 0.83 | inactive |
| PNN | 0.7 | inactive |
| PNN | 0.41 | inactive |
| SAMD4A | 1.43 | inactive |
| SAMD4A | 2.1 | inactive |
| SAMD4A | 0.48 | inactive |
| SAMD4A | 0.25 | inactive |
| VCX | -0.78 | inactive |
| VCX | -0.55 | inactive |
| VCX | -0.1 | inactive |
| VCX | 0.1 | inactive |
| CARMIL1 | 2.01 | inactive |
| CARMIL1 | 2.05 | inactive |
| CARMIL1 | 0.54 | inactive |
| CARMIL1 | 1.43 | inactive |
| EFCAB6 | -1.32 | inactive |
| EFCAB6 | -0.91 | inactive |
| EFCAB6 | -0.86 | inactive |
| EFCAB6 | -0.56 | inactive |
| SUSD3 | -0.27 | inactive |
| SUSD3 | 1.2 | inactive |
| SUSD3 | 0.41 | inactive |
| SUSD3 | 1.21 | inactive |
| KHDC1 | 0.71 | inactive |
| KHDC1 | 1.27 | inactive |
| KHDC1 | 0.25 | inactive |
| KHDC1 | 1.18 | inactive |
| GAS2 | -0.76 | inactive |
| GAS2 | -0.91 | inactive |
| GAS2 | -0.95 | inactive |
| GAS2 | -1.07 | inactive |
| TFPI | -0.8 | inactive |
| TFPI | -0.38 | inactive |
| TFPI | -0.92 | inactive |
| TFPI | -0.69 | inactive |

The list goes on (10 carried over from the part before).
| gene symbol | TNF reporter robust z-score | outcome |
| --- | --- | --- |
| KHDC1 | 0.25 | inactive |
| KHDC1 | 1.18 | inactive |
| GAS2 | -0.76 | inactive |
| GAS2 | -0.91 | inactive |
| GAS2 | -0.95 | inactive |
| GAS2 | -1.07 | inactive |
| TFPI | -0.8 | inactive |
| TFPI | -0.38 | inactive |
| TFPI | -0.92 | inactive |
| TFPI | -0.69 | inactive |
| SHISA3 | 0.21 | inactive |
| SHISA3 | 0.63 | inactive |
| SHISA3 | 0 | inactive |
| SHISA3 | -0.4 | inactive |
| RNF113B | -1.03 | inactive |
| RNF113B | -0.82 | inactive |
| RNF113B | 0.97 | inactive |
| RNF113B | -0.45 | inactive |
| SKP2 | 0.08 | inactive |
| SKP2 | -0.87 | inactive |
| SKP2 | -0.67 | inactive |
| SKP2 | -0.1 | inactive |
| FOSL2 | 0.71 | inactive |
| FOSL2 | 0.51 | inactive |
| FOSL2 | 0.43 | inactive |
| FOSL2 | 1.14 | inactive |
| SAGE1 | 2.93 | active |
| SAGE1 | 1.43 | inactive |
| SAGE1 | 0.78 | inactive |
| SAGE1 | 2.41 | inactive |
| RBBP6 | -0.75 | inactive |
| RBBP6 | -1.25 | inactive |
| RBBP6 | -2.25 | active |
| RBBP6 | -0.26 | inactive |
| SYT3 | -0.17 | inactive |
| SYT3 | 1.32 | inactive |
| SYT3 | 0.31 | inactive |
| SYT3 | 0.07 | inactive |
| CEBPD | -1.17 | inactive |
| CEBPD | -0.97 | inactive |
| CEBPD | -1.2 | inactive |
| CEBPD | -0.83 | inactive |
| ZMPSTE24 | 0.75 | inactive |
| ZMPSTE24 | 1.94 | inactive |
| ZMPSTE24 | 0.89 | inactive |
| ZMPSTE24 | 0 | inactive |
| EML1 | -1.1 | inactive |
| EML1 | -0.54 | inactive |
| EML1 | -0.93 | inactive |
| EML1 | -0.18 | inactive |
| ABCA2 | -0.49 | inactive |
| ABCA2 | -0.3 | inactive |
| ABCA2 | -0.91 | inactive |
| ABCA2 | -0.76 | inactive |
| PAXBP1 | -1.47 | inactive |
| PAXBP1 | -1.61 | active |
| PAXBP1 | -1.73 | active |
| PAXBP1 | -1.27 | inactive |
| SLC18B1 | 0 | inactive |
| SLC18B1 | -0.01 | inactive |
| SLC18B1 | 0.37 | inactive |
| SLC18B1 | 0.57 | inactive |
